The values that follow come from PMC9601805, “Characterization of the Escherichia coli pyridoxal 5′‐phosphate homeostasis protein (YggS): Role of lysine residues in PLP binding and protein stability” (Protein Science : A Publication of the Protein Society, 2022).

What all share (assay): SEC; Superdex 200 10/300 GL, room temperature, 0.5 ml/min, 50 mM NaHEPES pH 7.5, 150 mM NaCl, 2.5 mM β-mercaptoethanol; protein prepared under reducing conditions; both purified
The target of experiment [1] is YggS ΔK233/K234 variant (E. coli) (UniProt P67080).
Experiment [2] addresses YggS K36A/K137A variant (E. coli) (UniProt P67080).
For experiment [3], the target named is YggS K36A variant (E. coli) (UniProt P67080).
Experiment [4] concerns the target YggS K36A/K38A variant (E. coli) (UniProt P67080).
Experiment [5] addresses YggS K38A/K137A/K233A/K234A variant (E. coli) (UniProt P67080).
Experiment [6] has as its target YggS K36A/K233A/K234A variant (E. coli) (UniProt P67080).
The target in experiment [7] is YggS K36A/K38A/K137A/K233A/K234A variant (E. coli) (UniProt P67080).
Experiment [8] deals with YggS K36A/K38A/K233A/K234A variant (E. coli) (UniProt P67080).
Experiment [9] has as its target YggS K36A/K137A/K233A/K234A variant (E. coli) (UniProt P67080).
Experiment [10] addresses YggS K137A variant (E. coli) (UniProt P67080).
Experiment [11] concerns the target YggS K36A/K38A/K137A variant (E. coli) (UniProt P67080).

Results are given in words; binding and its absence hold for the method and conditions named.

B1: YggS ΔK233/K234 variant (protein, UniProt P67080 1-234)
chain: MNDIAHNLAQVRDKISAAATRCGRSPEEITLLAVSKTKPASAIAEAIDAGQRQFGENYVQEGVDKIRHFQELGVTGLEWHFIGPLQSNKSRLVAEHFDWCHTIDRLRIATRLNDQRPAELPPLNVLIQINISDENSKSGIQLAELDELAAAVAELPRLRLRGLMAIPAPESEYVRQFEVARQMAVAFAGLKTRYPHIDTLSLGMSDDMEAAIAAGSTMVRIGTAIFGARDYS
In the case of B1, the binding entry in experiment [1] is “no binding”.

B2: YggS K36A/K137A variant (protein, UniProt P67080 1-234)
chain: MNDIAHNLAQVRDKISAAATRCGRSPEEITLLAVSATKPASAIAEAIDAGQRQFGENYVQEGVDKIRHFQELGVTGLEWHFIGPLQSNKSRLVAEHFDWCHTIDRLRIATRLNDQRPAELPPLNVLIQINISDENSASGIQLAELDELAAAVAELPRLRLRGLMAIPAPESEYVRQFEVARQMAVAFAGLKTRYPHIDTLSLGMSDDMEAAIAAGSTMVRIGTAIFGARDYSKK
Regarding B2, the binding result in experiment [2] is “no binding”.

B3: YggS K36A variant (protein, UniProt P67080 1-234)
chain: MNDIAHNLAQVRDKISAAATRCGRSPEEITLLAVSATKPASAIAEAIDAGQRQFGENYVQEGVDKIRHFQELGVTGLEWHFIGPLQSNKSRLVAEHFDWCHTIDRLRIATRLNDQRPAELPPLNVLIQINISDENSKSGIQLAELDELAAAVAELPRLRLRGLMAIPAPESEYVRQFEVARQMAVAFAGLKTRYPHIDTLSLGMSDDMEAAIAAGSTMVRIGTAIFGARDYSKK
For the molecule B3, the binding result in experiment [3] is “no binding”.

B4: YggS K36A/K38A variant (protein, UniProt P67080 1-234)
chain: MNDIAHNLAQVRDKISAAATRCGRSPEEITLLAVSATAPASAIAEAIDAGQRQFGENYVQEGVDKIRHFQELGVTGLEWHFIGPLQSNKSRLVAEHFDWCHTIDRLRIATRLNDQRPAELPPLNVLIQINISDENSKSGIQLAELDELAAAVAELPRLRLRGLMAIPAPESEYVRQFEVARQMAVAFAGLKTRYPHIDTLSLGMSDDMEAAIAAGSTMVRIGTAIFGARDYSKK
With B4, the binding entry in experiment [4] is “no binding”.

B5: YggS K38A/K137A/K233A/K234A variant (protein, UniProt P67080 1-234)
chain: MNDIAHNLAQVRDKISAAATRCGRSPEEITLLAVSKTAPASAIAEAIDAGQRQFGENYVQEGVDKIRHFQELGVTGLEWHFIGPLQSNKSRLVAEHFDWCHTIDRLRIATRLNDQRPAELPPLNVLIQINISDENSASGIQLAELDELAAAVAELPRLRLRGLMAIPAPESEYVRQFEVARQMAVAFAGLKTRYPHIDTLSLGMSDDMEAAIAAGSTMVRIGTAIFGARDYSAA
For B5, in [5], the binding result is “no binding”.

B6: YggS K36A/K233A/K234A variant (protein, UniProt P67080 1-234)
chain: MNDIAHNLAQVRDKISAAATRCGRSPEEITLLAVSATKPASAIAEAIDAGQRQFGENYVQEGVDKIRHFQELGVTGLEWHFIGPLQSNKSRLVAEHFDWCHTIDRLRIATRLNDQRPAELPPLNVLIQINISDENSKSGIQLAELDELAAAVAELPRLRLRGLMAIPAPESEYVRQFEVARQMAVAFAGLKTRYPHIDTLSLGMSDDMEAAIAAGSTMVRIGTAIFGARDYSAA
As to B6, the binding entry in experiment [6] is reported as “no binding”.

B7: YggS K36A/K38A/K137A/K233A/K234A variant (protein, UniProt P67080 1-234)
chain: MNDIAHNLAQVRDKISAAATRCGRSPEEITLLAVSATAPASAIAEAIDAGQRQFGENYVQEGVDKIRHFQELGVTGLEWHFIGPLQSNKSRLVAEHFDWCHTIDRLRIATRLNDQRPAELPPLNVLIQINISDENSASGIQLAELDELAAAVAELPRLRLRGLMAIPAPESEYVRQFEVARQMAVAFAGLKTRYPHIDTLSLGMSDDMEAAIAAGSTMVRIGTAIFGARDYSAA
Take B7: the binding result in [7] was “no binding”.

B8: YggS K36A/K38A/K233A/K234A variant (protein, UniProt P67080 1-234)
chain: MNDIAHNLAQVRDKISAAATRCGRSPEEITLLAVSATAPASAIAEAIDAGQRQFGENYVQEGVDKIRHFQELGVTGLEWHFIGPLQSNKSRLVAEHFDWCHTIDRLRIATRLNDQRPAELPPLNVLIQINISDENSKSGIQLAELDELAAAVAELPRLRLRGLMAIPAPESEYVRQFEVARQMAVAFAGLKTRYPHIDTLSLGMSDDMEAAIAAGSTMVRIGTAIFGARDYSAA
B8: the binding entry in [8] is recorded as “no binding”.

B9: YggS K36A/K137A/K233A/K234A variant (protein, UniProt P67080 1-234)
chain: MNDIAHNLAQVRDKISAAATRCGRSPEEITLLAVSATKPASAIAEAIDAGQRQFGENYVQEGVDKIRHFQELGVTGLEWHFIGPLQSNKSRLVAEHFDWCHTIDRLRIATRLNDQRPAELPPLNVLIQINISDENSASGIQLAELDELAAAVAELPRLRLRGLMAIPAPESEYVRQFEVARQMAVAFAGLKTRYPHIDTLSLGMSDDMEAAIAAGSTMVRIGTAIFGARDYSAA
For the molecule B9, the binding result in experiment [9] is listed as “no binding”.

B10: YggS K137A variant (protein, UniProt P67080 1-234)
chain: MNDIAHNLAQVRDKISAAATRCGRSPEEITLLAVSKTKPASAIAEAIDAGQRQFGENYVQEGVDKIRHFQELGVTGLEWHFIGPLQSNKSRLVAEHFDWCHTIDRLRIATRLNDQRPAELPPLNVLIQINISDENSASGIQLAELDELAAAVAELPRLRLRGLMAIPAPESEYVRQFEVARQMAVAFAGLKTRYPHIDTLSLGMSDDMEAAIAAGSTMVRIGTAIFGARDYSKK
Regarding B10, the binding result in [10] was “no binding”.

B11: YggS K36A/K38A/K137A variant (protein, UniProt P67080 1-234)
chain: MNDIAHNLAQVRDKISAAATRCGRSPEEITLLAVSATAPASAIAEAIDAGQRQFGENYVQEGVDKIRHFQELGVTGLEWHFIGPLQSNKSRLVAEHFDWCHTIDRLRIATRLNDQRPAELPPLNVLIQINISDENSASGIQLAELDELAAAVAELPRLRLRGLMAIPAPESEYVRQFEVARQMAVAFAGLKTRYPHIDTLSLGMSDDMEAAIAAGSTMVRIGTAIFGARDYSKK
With B11, the binding result in [11] is given as “no binding”.
